{"source": "PubChem BioAssay AID1508588 – Peter MacCallum Cancer Centre | 2020", "assay": "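Knock-downs boosting vemurafenib effects on melanoma cell growth or lactate release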 (primary screen)", "system": "human WM266.4 melanoma cells (BRAF V600 mutant)", "knock-down reagent": "siRNA pool against human genes, 40 nM", "duration": "96 h from transfection to read-out", "challenge": "vemurafenib 300 nM (about IC25), added 48 h after transfection, for 48 h; comparison arm got DMSO vehicle only", "detection": "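Ratios to non-targeting siRNA for cell gain, counted as DAPI nuclei after minus before drug and averaged over two replicates, and for absorbance-read medium lactate per cell; both binned into fold-change classes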", "reading the numbers": "cell gain with vemurafenib: higher = more cell gain than with non-targeting siRNA; lactate per cell with vemurafenib: higher = more lactate made per cell", "hit rule": "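Enhancement is called by pairing each knock-down's vehicle-arm and drug-arm fold-change classes for viability or glycolysis; which class combinations qualify is not given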", "calls": "active = enhances vemurafenib effect; inactive = no enhancement seen", "note": "The deposit covers about 18,000 reagents; shown is a random part of them. 790 of them (4.4%) were called active. 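Calls rest on a combination of fold-change classes in drug and vehicle arms, not all shown here.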 Entries without a mark were called inactive."}
{"gene symbol":"NDUFV1 (GeneID 4723)","cell gain with vemurafenib":0.7,"lactate per cell with vemurafenib":1.18}
{"gene symbol":"TIMP2 (GeneID 7077)","cell gain with vemurafenib":0.55,"lactate per cell with vemurafenib":1.92}
{"gene symbol":"ACRV1 (GeneID 56)","cell gain with vemurafenib":"0.51 (active)","lactate per cell with vemurafenib":0.64}
{"gene symbol":"CFAP69 (GeneID 79846)","cell gain with vemurafenib":0.65,"lactate per cell with vemurafenib":0.56}
{"gene symbol":"TTC8 (GeneID 123016)","cell gain with vemurafenib":0.95,"lactate per cell with vemurafenib":1.1}
{"gene symbol":"DECR1 (GeneID 1666)","cell gain with vemurafenib":0.75,"lactate per cell with vemurafenib":0.64}
{"gene symbol":"IQCH (GeneID 64799)","cell gain with vemurafenib":0.92,"lactate per cell with vemurafenib":0.42}
{"gene symbol":"HAO2 (GeneID 51179)","cell gain with vemurafenib":0.33,"lactate per cell with vemurafenib":0.9}
{"gene symbol":"RPS4Y2 (GeneID 140032)","cell gain with vemurafenib":0.76,"lactate per cell with vemurafenib":0.76}
{"gene symbol":"PDE8A (GeneID 5151)","cell gain with vemurafenib":"0.33 (active)","lactate per cell with vemurafenib":0.07}
{"gene symbol":"FAM241A (GeneID 132720)","cell gain with vemurafenib":0.51,"lactate per cell with vemurafenib":0.96}
{"gene symbol":"DDIT4 (GeneID 54541)","cell gain with vemurafenib":0.65,"lactate per cell with vemurafenib":0.83}
{"gene symbol":"HLA-DMB (GeneID 3109)","cell gain with vemurafenib":0.49,"lactate per cell with vemurafenib":1.36}
{"gene symbol":"KLHL9 (GeneID 55958)","cell gain with vemurafenib":0.62,"lactate per cell with vemurafenib":1.52}
{"gene symbol":"IAH1 (GeneID 285148)","cell gain with vemurafenib":0.4,"lactate per cell with vemurafenib":0.8}
{"gene symbol":"OR4D5 (GeneID 219875)","cell gain with vemurafenib":0.55,"lactate per cell with vemurafenib":1.8}
{"gene symbol":"TGOLN2 (GeneID 10618)","cell gain with vemurafenib":0.03,"lactate per cell with vemurafenib":1.23}
{"gene symbol":"GIT1 (GeneID 28964)","cell gain with vemurafenib":0.5,"lactate per cell with vemurafenib":0.78}
{"gene symbol":"CXCL6 (GeneID 6372)","cell gain with vemurafenib":0.16,"lactate per cell with vemurafenib":0.6}

The list goes on, starting with the last 2 of the part before.
{"gene symbol":"GIT1 (GeneID 28964)","cell gain with vemurafenib":0.5,"lactate per cell with vemurafenib":0.78}
{"gene symbol":"CXCL6 (GeneID 6372)","cell gain with vemurafenib":0.16,"lactate per cell with vemurafenib":0.6}
{"gene symbol":"TPPP (GeneID 11076)","cell gain with vemurafenib":0.11,"lactate per cell with vemurafenib":0.68}
{"gene symbol":"SHKBP1 (GeneID 92799)","cell gain with vemurafenib":0.63,"lactate per cell with vemurafenib":1.12}
{"gene symbol":"EPHX4 (GeneID 253152)","cell gain with vemurafenib":0.69,"lactate per cell with vemurafenib":0.78}
{"gene symbol":"LEF1 (GeneID 51176)","cell gain with vemurafenib":0.29,"lactate per cell with vemurafenib":1.23}
{"gene symbol":"TMEM38B (GeneID 55151)","cell gain with vemurafenib":0.51,"lactate per cell with vemurafenib":0.76}
{"gene symbol":"SKI (GeneID 6497)","cell gain with vemurafenib":0.83,"lactate per cell with vemurafenib":2.04}
{"gene symbol":"TMEM213 (GeneID 155006)","cell gain with vemurafenib":0.32,"lactate per cell with vemurafenib":1.44}
{"gene symbol":"POLR1H (GeneID 30834)","cell gain with vemurafenib":0.21,"lactate per cell with vemurafenib":0.9}
{"gene symbol":"TAOK3 (GeneID 51347)","cell gain with vemurafenib":0.42,"lactate per cell with vemurafenib":0.83}
{"gene symbol":"RGPD7 (retired record) (GeneID 652919)","cell gain with vemurafenib":0.91,"lactate per cell with vemurafenib":1.08}
{"gene symbol":"FAM156A (GeneID 29057)","cell gain with vemurafenib":"0.29 (active)","lactate per cell with vemurafenib":0.12}
{"gene symbol":"CNOT6L (GeneID 246175)","cell gain with vemurafenib":0.57,"lactate per cell with vemurafenib":0.94}
{"gene symbol":"AMIGO3 (GeneID 386724)","cell gain with vemurafenib":0.74,"lactate per cell with vemurafenib":1.29}
{"gene symbol":"COIL (GeneID 8161)","cell gain with vemurafenib":1.11,"lactate per cell with vemurafenib":0.84}
{"gene symbol":"CGB1 (GeneID 114335)","cell gain with vemurafenib":0.5,"lactate per cell with vemurafenib":1.61}
{"gene symbol":"CBX3 (GeneID 11335)","cell gain with vemurafenib":0,"lactate per cell with vemurafenib":0}
{"gene symbol":"UTS2 (GeneID 10911)","cell gain with vemurafenib":0.65,"lactate per cell with vemurafenib":1.07}
{"gene symbol":"NRDC (GeneID 4898)","cell gain with vemurafenib":0.32,"lactate per cell with vemurafenib":1.44}
{"gene symbol":"ASXL2 (GeneID 55252)","cell gain with vemurafenib":0.47,"lactate per cell with vemurafenib":1.58}
{"gene symbol":"IFITM5 (GeneID 387733)","cell gain with vemurafenib":0.62,"lactate per cell with vemurafenib":1.2}
{"gene symbol":"KLC2 (GeneID 64837)","cell gain with vemurafenib":"0.22 (active)","lactate per cell with vemurafenib":0.36}
